Data as given in the supplement of paper PMC6411743.
± gives the standard deviation of the averaged measurements. This is one part of the list.

Experiments:
Assay in all cases: NP40-soluble protein abundance relative to vehicle (solubility fold change) (ratio); higher = more soluble protein in presence of GTP
ACAD9 = target: T1, ACAD9 (UniProt Q9H845)
T1 sequence (whole entry): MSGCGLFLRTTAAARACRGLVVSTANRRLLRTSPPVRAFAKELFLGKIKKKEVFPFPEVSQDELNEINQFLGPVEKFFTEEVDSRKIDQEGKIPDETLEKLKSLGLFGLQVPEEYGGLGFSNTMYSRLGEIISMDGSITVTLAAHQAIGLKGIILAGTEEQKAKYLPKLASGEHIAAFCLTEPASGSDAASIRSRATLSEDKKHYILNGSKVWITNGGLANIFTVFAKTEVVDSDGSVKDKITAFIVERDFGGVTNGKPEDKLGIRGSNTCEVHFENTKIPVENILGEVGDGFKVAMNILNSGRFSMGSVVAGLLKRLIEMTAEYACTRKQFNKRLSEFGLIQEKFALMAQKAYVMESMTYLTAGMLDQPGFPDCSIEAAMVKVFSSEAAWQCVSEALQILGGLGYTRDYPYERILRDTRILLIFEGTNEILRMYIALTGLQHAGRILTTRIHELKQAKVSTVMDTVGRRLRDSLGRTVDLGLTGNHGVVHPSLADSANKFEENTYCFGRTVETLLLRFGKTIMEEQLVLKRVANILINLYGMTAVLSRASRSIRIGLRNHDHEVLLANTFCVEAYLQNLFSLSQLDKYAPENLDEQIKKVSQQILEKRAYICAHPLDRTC
How it was run: (§1)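 Jurkat crude lysate (Dounce-homogenised) was treated with eight concentrations from 0.1 to 10 mM for 10 min at room temperature, then 3 min at 37 °C. It was solubilised with 0.8% NP40 and benzonase (60 min, 4 °C) and ultracentrifuged, and the supernatant was TMT-labelled for LC-MS/MS. Intensities were vsn-normalised, and the value is the fold change against the NP40-processed vehicle per replicate, from three independent experiments.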

DCP1A = target: T2, DCP1A (UniProt Q9NPI6)
T2 sequence (whole entry): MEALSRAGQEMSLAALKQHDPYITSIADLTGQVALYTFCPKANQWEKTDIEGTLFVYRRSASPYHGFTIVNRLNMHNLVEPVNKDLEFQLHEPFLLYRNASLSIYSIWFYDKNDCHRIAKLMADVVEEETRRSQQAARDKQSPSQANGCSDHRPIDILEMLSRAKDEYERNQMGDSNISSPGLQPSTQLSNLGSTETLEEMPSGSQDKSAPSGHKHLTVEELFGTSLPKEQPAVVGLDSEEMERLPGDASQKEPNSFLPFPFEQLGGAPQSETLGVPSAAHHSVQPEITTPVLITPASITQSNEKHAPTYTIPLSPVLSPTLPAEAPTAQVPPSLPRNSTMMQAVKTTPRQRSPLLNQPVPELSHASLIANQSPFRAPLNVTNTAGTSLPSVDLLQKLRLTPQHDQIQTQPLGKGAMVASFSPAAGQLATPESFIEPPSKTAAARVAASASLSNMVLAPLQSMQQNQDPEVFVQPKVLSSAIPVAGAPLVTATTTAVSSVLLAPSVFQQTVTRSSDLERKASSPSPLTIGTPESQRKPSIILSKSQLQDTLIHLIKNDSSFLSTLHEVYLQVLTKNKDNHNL
How it was run: as §1

FARSB = target: T3, FARSB (UniProt Q9NSD9)
T3 sequence (whole entry): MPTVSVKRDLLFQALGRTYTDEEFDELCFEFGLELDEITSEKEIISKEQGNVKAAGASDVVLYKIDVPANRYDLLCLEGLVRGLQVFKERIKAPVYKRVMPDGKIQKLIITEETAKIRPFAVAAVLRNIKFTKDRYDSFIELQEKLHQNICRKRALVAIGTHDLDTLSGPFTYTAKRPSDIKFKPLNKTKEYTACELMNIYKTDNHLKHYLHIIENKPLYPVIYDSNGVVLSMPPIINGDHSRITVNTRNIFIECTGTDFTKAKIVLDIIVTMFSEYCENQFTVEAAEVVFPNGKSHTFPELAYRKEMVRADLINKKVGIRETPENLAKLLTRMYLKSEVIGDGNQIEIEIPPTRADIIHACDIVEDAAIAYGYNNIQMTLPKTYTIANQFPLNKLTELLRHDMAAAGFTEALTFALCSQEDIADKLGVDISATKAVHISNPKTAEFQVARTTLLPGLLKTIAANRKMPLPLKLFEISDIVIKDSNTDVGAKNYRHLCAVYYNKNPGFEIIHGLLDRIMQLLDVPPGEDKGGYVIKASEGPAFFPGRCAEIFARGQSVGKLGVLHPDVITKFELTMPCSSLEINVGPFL
How it was run: as §1

PLEKHF2 = target: T4, PLEKHF2 (UniProt Q9H8W4)
T4 sequence (whole entry): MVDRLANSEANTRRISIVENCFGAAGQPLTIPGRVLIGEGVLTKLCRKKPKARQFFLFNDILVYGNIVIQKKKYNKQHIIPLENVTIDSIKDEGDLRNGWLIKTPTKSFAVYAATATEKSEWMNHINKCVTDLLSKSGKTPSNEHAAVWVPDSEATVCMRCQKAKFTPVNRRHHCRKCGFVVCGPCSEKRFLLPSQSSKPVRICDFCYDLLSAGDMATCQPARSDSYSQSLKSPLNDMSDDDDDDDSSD
How it was run: as §1

PREB = target: T5, PREB (UniProt Q9HCU5)
T5 sequence (whole entry): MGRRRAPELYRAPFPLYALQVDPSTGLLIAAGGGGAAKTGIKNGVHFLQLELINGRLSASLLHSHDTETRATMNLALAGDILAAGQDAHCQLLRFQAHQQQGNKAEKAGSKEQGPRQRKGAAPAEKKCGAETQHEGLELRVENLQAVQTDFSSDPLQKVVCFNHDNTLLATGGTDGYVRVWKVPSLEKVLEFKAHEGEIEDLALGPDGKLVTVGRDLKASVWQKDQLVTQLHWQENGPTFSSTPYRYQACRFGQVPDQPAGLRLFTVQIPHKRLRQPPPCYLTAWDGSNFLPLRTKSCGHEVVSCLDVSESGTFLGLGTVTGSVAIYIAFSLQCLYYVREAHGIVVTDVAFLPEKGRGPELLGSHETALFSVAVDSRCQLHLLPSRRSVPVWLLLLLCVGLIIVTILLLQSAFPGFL
How it was run: as §1

Nc1nc2c(ncn2[C@@H]2O[C@H](COP(=O)(O)OP(=O)(O)OP(=O)(O)O)[C@@H](O)[C@H]2O)c(=O)[nH]1 [guanosine triphosphate]
NP40-soluble protein abundance (ACAD9; concentration: 0.1mM): 1.01 ± 0.063
NP40-soluble protein abundance (ACAD9; concentration: 0.5mM): 1.02 ± 0.052
NP40-soluble protein abundance (ACAD9; concentration: 1mM): 0.965 ± 0.054
NP40-soluble protein abundance (ACAD9; concentration: 2mM): 0.967 ± 0.05
NP40-soluble protein abundance (ACAD9; concentration: 4mM): 0.946 ± 0.086
NP40-soluble protein abundance (ACAD9; concentration: 6mM): 0.957 ± 0.042
NP40-soluble protein abundance (ACAD9; concentration: 8mM): 0.929 ± 0.058
NP40-soluble protein abundance (ACAD9; concentration: 10mM): 0.901 ± 0.015
NP40-soluble protein abundance (DCP1A; concentration: 0.1mM): 0.984 ± 0.065
NP40-soluble protein abundance (DCP1A; concentration: 0.5mM): 0.994 ± 0.088
NP40-soluble protein abundance (DCP1A; concentration: 1mM): 0.961 ± 0.047
NP40-soluble protein abundance (DCP1A; concentration: 2mM): 0.965 ± 0.041
NP40-soluble protein abundance (DCP1A; concentration: 4mM): 0.97 ± 0.053
NP40-soluble protein abundance (DCP1A; concentration: 6mM): 0.955 ± 0.04
NP40-soluble protein abundance (DCP1A; concentration: 8mM): 0.944 ± 0.073
NP40-soluble protein abundance (DCP1A; concentration: 10mM): 0.948 ± 0.071
NP40-soluble protein abundance (FARSB; concentration: 0.1mM): 1.05 ± 0.043
NP40-soluble protein abundance (FARSB; concentration: 0.5mM): 1.06 ± 0.074
NP40-soluble protein abundance (FARSB; concentration: 1mM): 0.933 ± 0.035
NP40-soluble protein abundance (FARSB; concentration: 2mM): 0.944 ± 0.091
NP40-soluble protein abundance (FARSB; concentration: 4mM): 0.954 ± 0.064
NP40-soluble protein abundance (FARSB; concentration: 6mM): 0.925 ± 0.059
NP40-soluble protein abundance (FARSB; concentration: 8mM): 0.875 ± 0.012
NP40-soluble protein abundance (FARSB; concentration: 10mM): 0.844 ± 0.057
NP40-soluble protein abundance (PLEKHF2; concentration: 0.1mM): 0.956 ± 0.025
NP40-soluble protein abundance (PLEKHF2; concentration: 0.5mM): 0.96 ± 0.012
NP40-soluble protein abundance (PLEKHF2; concentration: 1mM): 0.897 ± 0.06
NP40-soluble protein abundance (PLEKHF2; concentration: 2mM): 0.894 ± 0.074
NP40-soluble protein abundance (PLEKHF2; concentration: 4mM): 0.861 ± 0.063
NP40-soluble protein abundance (PLEKHF2; concentration: 6mM): 0.853 ± 0.027
NP40-soluble protein abundance (PLEKHF2; concentration: 8mM): 0.853 ± 0.068
NP40-soluble protein abundance (PLEKHF2; concentration: 10mM): 0.854 ± 0.095
NP40-soluble protein abundance (PREB; concentration: 0.1mM): 1.04 ± 0.025
NP40-soluble protein abundance (PREB; concentration: 0.5mM): 1 ± 0.013
